Test results from patent US9566349B2, “Intestinal peptide targeting ligands” (Rutgers, The State University of New Jersey, priority 2010, dated 2017).
Part of at least one peptide drawing is inferred or uncertain, most often the ends. Square brackets hold non-standard residues; d marks the D form. Peptide text beside a SMILES is read from it. Nle = CCCC[C@H](N)C(=O)O

Experiment: Solubility and aggregation of peptide compared with SEQ ID NO. 1
Assay type: physicochemical
Details: Met and Cys replaced by norleucine and serine
From the text: Another example of such an amino acid sequence is TKWPVDN/eSPNVS (SEQ ID. NO. 6). In comparison with SEQ ID. NO. 1, replacement of the oxidation-prone amino acids (methionine and cysteine) with their biosteric counterparts (norleucine and serine respectively) in SEQ ID. NO. […] The peptide ligands of the instant invention also include variants or homologues of SEQ ID NO: 6, which may be at least 75% identical to SEQ ID NO: 6 or which may contain conservative substitutions of corresponding amino acid residues.

## CCCC[C@H](NC(=O)[C@H](CC(=O)O)NC(=O)[C@@H](NC(=O)[C@@H]1CCCN1C(=O)[C@H](Cc1c[nH]c2ccccc12)NC(=O)[C@H](CCCCN)NC(=O)[C@@H](N)[C@@H](C)O)C(C)C)C(=O)N[C@@H](CO)C(=O)N1CCC[C@H]1C(=O)N[C@@H](CC(N)=O)C(=O)N[C@H](C(=O)N[C@@H](CO)C(=O)O)C(C)C [SEQ ID. NO. 6, TKWPVDN/eSPNVS] (H-TKWPVD[Nle]SPNVS-OH; N-terminus and C-terminus assumed)
  aggregation in comparison with SEQ ID. NO. 1: less undesirable aggregation
